Laboratory results as given in patent US20160159914A1.
These are yes or no findings as the source states them, for the method shown. Some results given as binding are weak or reduced against the parent protein; the word gives no strength. For some of these results: Where a sequence is shown, tags or fusion partners need not be part of it.

Amino acid sequences for entries named in this document (tags omitted). Residues count along the entry.
UniProt Q96F46, residues 33-320: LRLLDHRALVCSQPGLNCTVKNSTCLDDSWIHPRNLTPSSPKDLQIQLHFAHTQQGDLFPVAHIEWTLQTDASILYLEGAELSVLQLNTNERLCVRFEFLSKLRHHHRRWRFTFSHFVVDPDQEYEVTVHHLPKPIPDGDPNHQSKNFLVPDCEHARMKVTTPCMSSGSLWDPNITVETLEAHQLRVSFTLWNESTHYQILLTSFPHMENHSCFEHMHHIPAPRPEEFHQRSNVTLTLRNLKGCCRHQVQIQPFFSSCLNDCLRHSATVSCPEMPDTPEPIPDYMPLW
UniProt Q16552, residues 24-155: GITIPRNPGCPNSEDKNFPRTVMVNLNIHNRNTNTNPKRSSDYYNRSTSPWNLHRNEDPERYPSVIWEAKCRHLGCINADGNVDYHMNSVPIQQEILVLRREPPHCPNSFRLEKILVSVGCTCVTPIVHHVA

T1: IL-17RE-FC (Amgen) (UniProt Q8NFR9)
T1 sequence (looked up): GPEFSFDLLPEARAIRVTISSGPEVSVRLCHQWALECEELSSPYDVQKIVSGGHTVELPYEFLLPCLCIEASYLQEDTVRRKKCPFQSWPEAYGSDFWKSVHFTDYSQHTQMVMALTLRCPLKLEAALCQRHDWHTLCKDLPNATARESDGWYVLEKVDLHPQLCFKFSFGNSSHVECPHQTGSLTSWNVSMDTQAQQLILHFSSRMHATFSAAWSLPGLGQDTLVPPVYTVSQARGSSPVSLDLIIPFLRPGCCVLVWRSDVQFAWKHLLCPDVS


Tests used:
[1] = target: IL-17RA-FC (R&D Systems) Catalog#177-IR (human) (UniProt Q96F46); assay: AlphaScreen, His-tagged ligand with Fc-tagged receptor (figure legend)
[2] = target: IL-17RA-FC (R&D Systems) Catalog#177-IR (human) (UniProt Q96F46); assay: AlphaScreen, His-tagged ligand with Fc-tagged receptor
IL-17RE-FC (Amgen) [3] = target: T1, IL-17RE-FC (Amgen); assay: AlphaScreen, His-tagged ligand with Fc-tagged receptor (figure legend)
IL-17RE-FC (Amgen) [4] = target: T1, IL-17RE-FC (Amgen); assay: AlphaScreen, His-tagged ligand with Fc-tagged receptor

Row | binding [1] | binding [2] | binding (IL-17RE-FC (Amgen) [3]) | binding (IL-17RE-FC (Amgen) [4]) | Molecule
1 | binds | binds |  |  | IL-17A-His (Amgen) (from UniProt Q16552 24-155) (ligand)
2 |  |  | binds | binds | IL-17C-His-Avi (Amgen) (ligand, UniProt Q9P0M4 19-197, looked up, not shown: small tags and cut ends) HHDPSLRGHPHSHGTPHCYSAEELPLGQAPPHLLARGAKWGQALPVALVSSLEAASHRGRHERPSATTQCPVLRPEEVLEADTHQRSISPWRYRVDTDEDRYPQKLAFAECLCRGCIDARTGRETAALNSVRLLQSLLVLRRRPCSRDGSGLPTPGAFAFHTEFIHVPVGCTCVLPRSV
